These results are taken from PubChem BioAssay AID493014 (National Center for Advancing Translational Sciences (NCATS), 2011).

This test can be described thus: qHTS Assay to Find Inhibitors of Chronic Active B-Cell Receptor Signaling. The conditions noted are these: ABC-DLBCL IkBa-CBG/CBR reporter, luminescence ratio (green luciferase fused to IkBa over red control in TMD8 lymphoma cells), 4 h. In a few lines:
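Cell line TMD8 (human ABC DLBCL), stably expressing tet-inducible CBG68-IkBa fusion and CBR; IMDM/0.5% FBS; cpd up to 46 uM; dox induction, 4 h, 37C/5% CO2; dual luminescence; green/red ratio; MG132 control.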

Setting [1] is: measured here: CBR red luminescence, cell number.
Setting [2] is: measured here: IkBa-CBG green luminescence.

Structures are written as SMILES. Some of the results follow. These are further read-outs of the screen, such as a control signal, another cell line or another target. No call is given for them. The list favours compounds with an active or inconclusive main result. Words in brackets tell the shape of the fitted curve; partial curves, single points and poor fits give uncertain potencies.

Regarding `O=C(Nc1ccc(Cl)cc1)Nc1ccc2c(c1)N1CCN=C1S2`, the AC50 under setting [1] was 0.0891 µM [rising, full curve]. Turning to `CCCCc1cc(=O)oc2c(C)c(OCC(=O)NCCN3CCOCC3)ccc12`, under setting [1], the AC50 was 12.6 µM [rising, partial curve, poor fit]. Regarding `CCc1nc(Nc2ccc(F)cc2)c2oc3ccccc3c2n1`, the AC50 under setting [1] was 1 µM [falling, partial curve, poor fit]. On the same count and under the same terms, for `COc1ccc(/C=N\Nc2ccccn2)c(OC)c1` the value was 0.447 µM [rising, full curve, poor fit]; for `CCOC(=O)c1ccc(NC(=O)CSc2nnc(COc3ccccc3OC)n2C)cc1`, 29.1 µM [rising, partial curve, poor fit]; for `CCc1sc(N(C(=O)Cc2ccccc2)c2ccccc2F)nc1-c1ccc(C)cc1`, 2.06 µM [falling, full curve, poor fit]. Consider `Cc1cc(C)n(-c2nncc(-c3ccccc3)n2)n1`, for which, under setting [1], the half-maximal activity concentration (AC50) was 14.1 µM [falling, partial curve]. The same measure, in the same setting: for `Cc1ccc(CC(=O)O/N=C(\N)c2ccncc2)cc1` the value was 10 µM [rising, partial curve, poor fit]; for `CN(C)S(=O)(=O)c1cccc(NC(=S)NNC(=O)c2cc3ccccc3cc2O)c1`, 8.2 µM [falling, partial curve]. With `CCOC(=O)N1CCN(C(=O)CCN2C(=O)COc3ccccc32)CC1`, the AC50 under setting [1] is 35.5 µM [rising, single point]. For `CC(C)(C)c1cc(Cl)ccc1OCCOCCN1CCCC1`, the concentration at half-maximal activity (AC50) under setting [1] is 11.2 µM [falling, partial curve]. In the case of `Cc1ccc(-c2nnc(SCC#N)n2N)cc1`, the AC50 under setting [1] is 32.6 µM [rising, partial curve, poor fit]. Take `O=[N+]([O-])c1c(Nc2ccc(O)cc2)cc(Cl)c2nonc12`: the AC50 under setting [1] was 3.55 µM [falling, full curve]. Same read-out and setting: next, `COc1ccccc1C(OC(=O)c1ccco1)C(=O)NC(C)(C)C` (stereo unspecified): 3.55 µM [falling, partial curve]; `O=C1/C(=C\c2ccco2)SC(=S)N1C1CCCCC1`: 11.2 µM [rising, partial curve, poor fit]. On the same count and under the same terms, next, `O=S(Cc1ccc(Br)cc1)Cc1nnc(SCc2ccc(Br)cc2)n1-c1ccccc1` (stereo unspecified): 16.4 µM [falling, partial curve, poor fit].

With `CC1=CC(=O)C=C(C)C1=NOC(=O)c1cccc([N+](=O)[O-])c1`, the AC50 under setting [1] is 1.84 µM [rising, partial curve, poor fit]. As for `CCOCCCNc1ccc(-c2ccccc2)nn1`, the AC50 under setting [1] is 29.1 µM [falling, single point]. For the molecule `Cn1c(=O)c2c(nc(N3CCc4ccccc4C3)n2Cc2ccc(Br)cc2)n(C)c1=O`, the AC50 under setting [1] is 5.17 µM [rising, partial curve, poor fit]. For the molecule `Cc1ccc(C(=O)Nc2nc(-c3ccc([N+](=O)[O-])cc3)cs2)o1`, the AC50 under setting [1] is 1.46 µM [rising, partial curve, poor fit]. As to `Cc1ccc(-c2nnc(OCC3CCCO3)c3ccccc23)cc1` (stereo unspecified), the concentration at half-maximal activity (AC50) under setting [1] was 2 µM [rising, partial curve, poor fit].

Turning to `N#Cc1ccccc1Cn1cc(/C=C/[N+](=O)[O-])c2ccccc21`, the AC50 under setting [1] is 16.4 µM [falling, partial curve].

Regarding `COC(=O)c1ccc(C(NC(=O)OCc2ccccc2)/C(F)=C/[C@@H](C)C(=O)NCc2ccc(OC)c(OC)c2)cc1` (stereo partly specified), the AC50 under setting [1] is 16.4 µM [rising, single point]. Turning to `COc1cccc(Nc2ncccc2C(=O)Nc2ccccc2)c1`, the AC50 under setting [1] is 28.2 µM [falling, single point]. As to `Cc1ccc(C(=O)N/C(=C/c2ccco2)C(=O)NCCc2c[nH]c3ccccc23)cc1C`, the concentration at half-maximal activity (AC50) under setting [1] was 35.5 µM [falling, single point].

In the case of `Cc1ccc2nc(Nc3ccccc3O)nc(-c3ccccc3)c2c1`, the AC50 under setting [1] is 7.08 µM [falling, partial curve, poor fit]. Consider `Oc1ccc(N=Nc2ccc3c(c2)OCCO3)c(O)c1`, for which, under setting [1], the AC50 was 10 µM [falling, single point]. In the case of `Cc1cccc(C(=O)N/N=C/c2coc3ccccc3c2=O)c1`, under setting [1], the concentration at half-maximal activity (AC50) is 6.31 µM [falling, partial curve, poor fit]. Regarding `CCC(=O)Nc1nc(C)c(-c2csc(Nc3ccc(S(=O)(=O)Nc4cc(C)on4)cc3)n2)s1`, the half-maximal activity concentration (AC50) under setting [1] is 7.31 µM [falling, partial curve, poor fit]. Still for that read-out and setting: next, `COc1ccc(NC(=O)NCCN2CCN(c3ccc(C)cc3)CC2)c(Cl)c1`: 5.62 µM [rising, full curve, poor fit]. Turning to `Cc1ccccc1-n1c(SCc2ccc(Cl)cc2)nc2[nH]ncc2c1=O`, under setting [1], the AC50 was 20 µM [falling, single point].

For the molecule `C=CCn1c(SCCNC(C)=O)nc2cc(-c3ccccc3)sc2c1=O`, under setting [1], the AC50 is 1.12 µM [rising, full curve, poor fit]. Take `O=C(O)CSc1ccc(NC(=O)Nc2ccccc2F)cc1`: the half-maximal activity concentration (AC50) under setting [1] was 25.1 µM [falling, partial curve].

For the molecule `Cc1ccc(N2C(=O)C(CC(=O)Nc3cccc(F)c3)N(C3CC3)C2=O)cc1` (stereo unspecified), the AC50 under setting [1] was 35.5 µM [rising, single point]. As for `CC(=O)c1cccc(NC(=O)C2CCCN2S(=O)(=O)c2cccc3cccnc23)c1` (stereo unspecified), the AC50 under setting [1] is 8.2 µM [rising, partial curve]. As for `O=C(COC(=O)C1CCC1)Nc1ccc(Oc2ccccc2)cc1`, the AC50 under setting [1] was 4.61 µM [rising, full curve, poor fit]. On the same count and under the same terms, for `Cc1ccc2nc3c(cc2c1)c(NC(=O)c1cccnc1)nn3C` the value was 2.91 µM [rising, single point].

For `CCOC(=O)c1cccnc1SCC(=O)Nc1ccc(C)cc1C`, the half-maximal activity concentration (AC50) under setting [1] is 12.6 µM [rising, single point]. With `CCOc1ccc(NC(=O)Cn2nnc(-c3ccccc3NC(=O)c3cccs3)n2)cc1`, under setting [1], the AC50 is 20.6 µM [rising, single point]. `Oc1ccc(N=Nc2ccccc2)cc1`: the AC50 under setting [1] was 0.708 µM [rising, full curve, poor fit]. Turning to `Cc1ccc(NC(=O)CSc2nnc(-c3ccco3)c(-c3ccco3)n2)cc1`, the AC50 was 35.5 µM [rising, single point] under setting [1] and 22.4 µM [falling, single point] under setting [2]. `CC(C)(C)c1ccc(C(=O)Nc2ccc(NC(=O)C(=O)O)cc2)o1`: the AC50 under setting [1] is 11.2 µM [rising, partial curve, poor fit].

As to `CCOC(=O)N1CCN(c2c(F)cc3[nH]c(=S)[nH]c3c2Br)CC1`, the half-maximal activity concentration (AC50) under setting [2] is 20.6 µM [falling, partial curve, poor fit]. Take `CCOc1ccc(/C=N/Nc2nc(=O)[nH]nc2C)cc1OC`: under setting [1], the AC50 is 14.1 µM [rising, partial curve]. Consider `CSc1ccc(/C=C/C(=O)c2ccc(O)cc2)cc1`, for which, under setting [1], the AC50 is 8.2 µM [falling, partial curve].

`Cc1ccc(C)n1-c1c(C(=O)NN)cnn1-c1ccccc1`: under setting [1], the AC50 was 12.6 µM [rising, single point]. `Cc1ccc2nc(NC(=O)C3CCN(S(=O)(=O)c4cnc[nH]4)CC3)sc2c1`: the AC50 under setting [1] was 23.1 µM [falling, partial curve]. For the molecule `O=C(Nc1ccc2oc(-c3ccccc3F)nc2c1)c1ncn[nH]1`, under setting [1], the AC50 is 8.2 µM [rising, single point]. On to `CCCc1cc(-c2nc(-c3ccc(Br)cc3)cs2)ccn1`, for which the AC50 under setting [1] is 7.31 µM [rising, partial curve, poor fit]. In the case of `C/C(=N\NC(=O)CCC(=O)Nc1ccccc1)c1cccs1`, the concentration at half-maximal activity (AC50) under setting [1] was 18.4 µM [rising, partial curve, poor fit]. Take `Cc1ncc(CN2CCCC(C(=O)Nc3ccc(-c4ccco4)cc3)C2)cn1` (stereo unspecified): the AC50 under setting [1] was 1 µM [falling, full curve].

With `Cc1ccc(C)c(N2CCN(CCCNC(=O)Cn3cc4c(n3)CCCCC4)CC2)c1`, the AC50 under setting [1] was 23.1 µM [falling, single point]. On the same count and under the same terms, for `CCCCn1c(SCC(=O)NC(C)CC)nc2ccc(N3CCOCC3)cc2c1=O` (stereo unspecified) the value was 15.8 µM [falling, single point]. Regarding `CCOC(=O)/C(N=Nc1c(C)n(C)n(-c2ccccc2)c1=O)=C(\C)O`, the AC50 under setting [1] is 0.231 µM [rising, full curve, poor fit]. In the case of `CC1CCCCC1NC(=O)CN1c2cccc3cccc(c23)S1(=O)=O` (stereo unspecified), the concentration at half-maximal activity (AC50) under setting [1] is 2.59 µM [rising, partial curve, poor fit]. As to `CCOC(=O)C(C)Oc1cccc2c(=O)n(CC(=O)NCCc3ccc(OC)c(OC)c3)ccc12` (stereo unspecified), under setting [1], the half-maximal activity concentration (AC50) is 23.1 µM [rising, single point].

For `Cc1cc(C(=O)N/N=C/C=C/c2ccc([N+](=O)[O-])cc2)n[nH]1`, the concentration at half-maximal activity (AC50) under setting [1] was 35.5 µM [falling, single point]. Turning to `O=S(=O)(Nc1nc2ccc(S(=O)(=O)N3CCCCC3)cc2s1)c1ccccc1`, the AC50 under setting [1] is 1.84 µM [falling, partial curve]. Still for that read-out and setting: for `COc1ccc(-c2csc(N(C)C(=O)c3cccs3)n2)cc1` the value was 0.794 µM [rising, partial curve, poor fit]; for `Cc1cc(C)c(S(=O)(=O)/N=C2/C=C(SCC(=O)O)C(=O)c3ccccc32)cc1C`, 20 µM [falling, single point].

With `CCCCNC(=O)c1cccc(C(=O)NCCCC)c1`, the AC50 under setting [1] is 18.4 µM [rising, single point]. On the same count and under the same terms, next, `COC1(C2=NCCN2)COc2ccccc2O1` (stereo unspecified): 20.6 µM [rising, single point]; `O=c1c2ccccc2nc(-c2ccc(Cl)c(Cl)c2)n1O`: 16.4 µM [falling, partial curve, poor fit]. `CC(=O)Nc1ccc(C(=O)CSc2nccc(=O)[nH]2)cc1`: the AC50 under setting [1] was 10 µM [falling, partial curve, poor fit]. For the molecule `CC1CCCCN1CCNC(=O)c1ccc2c(c1)N(Cc1ccccc1F)C(=O)c1ccccc1S2=O` (stereo unspecified), the AC50 under setting [1] is 11.2 µM [falling, partial curve, poor fit].
